Drawing on paper PMC11099620, this text covers binding for one substance.

By UniProt entry, the sequences of proteins in these tests, tags left out. Residues count along the entry.
UniProt Q14191, residues 910-1250: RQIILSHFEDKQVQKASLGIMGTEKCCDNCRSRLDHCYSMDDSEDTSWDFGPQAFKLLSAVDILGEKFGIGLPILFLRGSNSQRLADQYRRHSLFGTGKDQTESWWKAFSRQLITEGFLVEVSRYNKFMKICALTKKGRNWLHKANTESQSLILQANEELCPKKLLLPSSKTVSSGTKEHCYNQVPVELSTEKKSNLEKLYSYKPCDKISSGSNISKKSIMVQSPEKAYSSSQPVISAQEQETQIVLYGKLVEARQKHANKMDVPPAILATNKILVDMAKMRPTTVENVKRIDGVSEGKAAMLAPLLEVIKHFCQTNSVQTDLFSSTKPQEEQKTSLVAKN
UniProt Q9Y3Z3: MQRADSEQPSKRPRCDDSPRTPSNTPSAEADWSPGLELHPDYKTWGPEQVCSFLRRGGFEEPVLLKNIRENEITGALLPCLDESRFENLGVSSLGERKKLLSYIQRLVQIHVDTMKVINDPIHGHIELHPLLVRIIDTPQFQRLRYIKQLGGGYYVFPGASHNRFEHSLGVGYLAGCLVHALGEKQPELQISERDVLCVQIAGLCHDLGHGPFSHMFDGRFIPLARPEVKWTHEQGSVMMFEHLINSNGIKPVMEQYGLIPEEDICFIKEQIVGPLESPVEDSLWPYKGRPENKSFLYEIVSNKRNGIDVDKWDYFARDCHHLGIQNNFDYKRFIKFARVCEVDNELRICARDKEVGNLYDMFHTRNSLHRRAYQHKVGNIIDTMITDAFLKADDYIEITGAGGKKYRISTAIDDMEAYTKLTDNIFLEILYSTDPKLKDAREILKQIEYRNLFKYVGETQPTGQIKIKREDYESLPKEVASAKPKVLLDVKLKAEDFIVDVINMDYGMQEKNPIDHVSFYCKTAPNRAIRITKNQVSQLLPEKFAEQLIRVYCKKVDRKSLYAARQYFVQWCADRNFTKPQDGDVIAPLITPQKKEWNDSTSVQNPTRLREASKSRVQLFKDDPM

The assay addresses GST-C-terminal WRN fragment (amino acids 910 to 1250) (human) (UniProt Q14191). The experiment in a line: pull-down; GST or GST-C-terminal WRN fragment on beads incubated 16 hours with 300 ng of HEK293T (nuclear) extracts, cells treated or not with 2 mM HU for 4 hours; Western blot with anti-GST and anti-SAMHD1; only the target purified.

These are yes or no findings as the source states them, for the method shown. Binding seen in cells or lysates may run through a third protein. Some binding calls cover weakened binding; strength is not graded here.

Turning to “SAMHD1 (endogenous in HEK293T cells) (from UniProt Q9Y3Z3 1-626)”, the binding result is given as “binds”.
